The target of this test is Grb2 (mouse (endogenous in primary mouse mammary epithelial cells)) (UniProt Q60631). Nature of the test: co-IP; anti-Grb2 immunoprecipitation (protein G Dynabeads) from post-nuclear NP-40 lysates (1% NP-40, 150 mM NaCl, 50 mM Tris-HCl, 10 mM EDTA, pH 8.0) of primary mouse mammary epithelial cells, control (+/df) and dab2 knockout (df/df), stimulated with TGF-beta (10 ng/ml) for 0, 5, 15, 30 and 90 min; blots for Sos, Dab2 and Grb2.

Protein sequences, listed by entry. Tags and fused reporters are not part of them.
UniProt Q60631: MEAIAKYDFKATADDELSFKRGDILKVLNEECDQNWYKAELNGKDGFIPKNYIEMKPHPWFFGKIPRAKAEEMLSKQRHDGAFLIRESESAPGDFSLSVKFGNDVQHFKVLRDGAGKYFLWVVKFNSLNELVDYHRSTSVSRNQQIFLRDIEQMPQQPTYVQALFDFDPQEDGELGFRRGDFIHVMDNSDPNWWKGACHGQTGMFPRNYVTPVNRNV

These are yes or no findings as the source states them, for the method shown. Binding seen in cells or lysates may run through a third protein. Some results given as binding are weak or reduced against the parent protein; the word gives no strength.

Regarding Sos (from UniProt Q62245 1-1319), the binding entry was “binds”.

For the origin of these results see article PMC4216001.
